Experimental data: publication PMC4559079 (Journal of Hematology & Oncology, 2015)

Conditions: N = 43; data cutoff July 14, 2014

CC(C)C[C@H](NC(=O)CNC(=O)c1cc(Cl)ccc1Cl)B(O)O [ixazomib]
mean relative dose intensity (proportion of dose prescribed that was actually taken): 89.6%

C[C@@H]1C[C@H]2[C@@H]3CCC4=CC(=O)C=C[C@]4(C)[C@@]3(F)[C@@H](O)C[C@]2(C)[C@@]1(O)C(=O)CO [dexamethasone, reference compound]
mean relative dose intensity (proportion of dose prescribed that was actually taken): 90.9% | patients receiving 100 % of the planned dose: 28%

Nc1cccc2c1CN(C1CCC(=O)NC1=O)C2=O (centres unmarked) [lenalidomide, reference compound]
mean relative dose intensity (proportion of dose prescribed that was actually taken): 68.7% | patients receiving 100 % of the planned dose: 12%
